Measurements reported in article PMC6791687.

These binders were tested against T1, FAMA-TbID-Venus (FAMApro::FAMA-TbID-mVenus in fama-1) (Arabidopsis thaliana) (UniProt Q56YJ8) (assay: proximity labelling; FAMApro::FAMA-TbID-Venus in 5-day-old Arabidopsis seedlings, 50 uM biotin for 0, 0.5 or 3 h; biotinylated proteins purified on streptavidin beads, on-bead digest, LC-MS/MS with label-free quantification; filtered for enrichment against WT, nuclear TbID (FAMAnucTbID) and untreated samples; three biological replicates).
T1 sequence: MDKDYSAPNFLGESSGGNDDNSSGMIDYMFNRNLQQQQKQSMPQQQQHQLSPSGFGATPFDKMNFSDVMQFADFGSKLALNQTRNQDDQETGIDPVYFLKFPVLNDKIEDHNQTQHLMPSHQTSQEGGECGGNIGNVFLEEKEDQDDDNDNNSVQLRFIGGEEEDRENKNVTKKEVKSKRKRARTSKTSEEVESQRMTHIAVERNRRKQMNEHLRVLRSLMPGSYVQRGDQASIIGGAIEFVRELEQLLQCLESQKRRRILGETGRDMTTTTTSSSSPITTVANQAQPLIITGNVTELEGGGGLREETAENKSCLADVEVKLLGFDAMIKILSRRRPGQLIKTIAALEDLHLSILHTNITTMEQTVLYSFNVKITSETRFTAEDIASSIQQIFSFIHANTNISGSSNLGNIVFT

Binder | binding
CER26-LIKE (protein, UniProt Q9LIS1 1-420) MGLVQEEGSGPVHGFRLSTVSASLPSETGTTHEPTGLDLAMKLHYLKAVYIYSAGTARDLTVMDVKAPLFSVFYQIPCIIGRFRRHESGRPYLKCNDCGTRFVESHCDLTVEEWLRVPDRSVDESLVYHQPVGPDLAFSPLLYIQMTRFSCGGLALGLSWAHIMGDPFSLSHFFNLWAQAFAGGKIYCPKTSVTERDFQNPTSTFKKPDSVKQVDLVGDLWVAPNNSKMTTFSFNLTVNDLKTHFPVNGDGEFEILTGIIWKCVATVRGESAPVTITVIRSDPKKLKPRAVRNGQMISSIHVDFSVAEASLEEIVKSIGEAKDERVVIDEIVDDVSDFIVYGANLTFVDMSEVDFYEAKVMGKSPESVYCNVQGIGDDGAVVVLPGVVEEERVVTVTLPVDEIEKVKWEMKKCGLITPLV | binds
CPH (protein, UniProt Q9LM02 1-336) MDLASNLGGKIDKSDVLTAVEKYEQYHVFHGGNEEERKANYTDMVNKYYDLATSFYEYGWGESFHFAQRWKGESLRESIKRHEHFLALQLGIQPGQKVLDVGCGIGGPLREIARFSNSVVTGLNNNEYQITRGKELNRLAGVDKTCNFVKADFMKMPFPENSFDAVYAIEATCHAPDAYGCYKEIYRVLKPGQCFAAYEWCMTDAFDPDNAEHQKIKGEIEIGDGLPDIRLTTKCLEALKQAGFEVIWEKDLAKDSPVPWYLPLDKNHFSLSSFRLTAVGRFITKNMVKILEYIRLAPQGSQRVSNFLEQAAEGLVDGGRREIFTPMYFFLARKPE | binds
UGE3 (protein, UniProt Q8LDN8 1-351) MGSSVEQNILVTGGAGFIGTHTVVQLLNQGFKVTIIDNLDNSVVEAVHRVRELVGPDLSTKLEFNLGDLRNKGDIEKLFSNQRFDAVIHFAGLKAVGESVGNPRRYFDNNLVGTINLYETMAKYNCKMMVFSSSATVYGQPEIVPCVEDFELQAMNPYGRTKLFLEEIARDIHAAEPEWKIILLRYFNPVGAHESGRIGEDPKGIPNNLMPYIQQVAVGRLPELNVFGHDYPTMDGSAVRDYIHVMDLADGHVAALNKLFSDSKIGCTAYNLGTGQGTSVLEMVSSFEKASGKKIPIKLCPRRAGDATAVYASTQKAEKELGWKAKYGVDEMCRDQWNWANKNPWGFQKKP | binds
KNAT4 (protein, UniProt P48001 1-393) MAFHNNHFNHFTDQQQHQPPPPPQQQQQQHFQESAPPNWLLRSDNNFLNLHTAASAAATSSDSPSSAAANQWLSRSSSFLQRGNTANNNNNETSGDVIEDVPGGEESMIGEKKEAERWQNARHKAEILSHPLYEQLLSAHVACLRIATPVDQLPRIDAQLAQSQNVVAKYSTLEAAQGLLAGDDKELDHFMTHYVLLLCSFKEQLQQHVRVHAMEAVMACWEIEQSLQSFTGVSPGEGTGATMSEDEDEQVESDAHLFDGSLDGLGFGPLVPTESERSLMERVRQELKHELKQGYKEKIVDIREEILRKRRAGKLPGDTTSVLKSWWQSHSKWPYPTEEDKARLVQETGLQLKQINNWFINQRKRNWHSNPSSSTVSKNKRRSNAGENSGRDR | binds
MED16 (protein, UniProt F4JGZ1 1-1278) MNQQNPEEEVSLVNNSGGGGIIEAPAIVEEKEEEGLQQKQEETIESTDPILVVVEEKLLEKSVDGEKEDDNSSSSNMEIDPVSPATVFCVKLKQPNSNLLHKMSVPELCRNFSAVAWCGKLNAIACASETCARIPSSKANTPFWIPIHILIPERPTECAVFNVVADSPRDSVQFIEWSPTSCPRALLIANFHGRITIWTQPTQGSANLVHDATSWQCEHEWRQDIAVVTKWLTGASPYRWLSSKPSSGTNAKSTFEEKFLSQSSESSARWPNFLCVCSVFSSGSVQIHWSQWPSNQGSTAPKWFSTKKGLLGAGPSGIMAADAIITDSGAMHVAGVPIVNPSTIVVWEVTPGPGNGLQATPKISTGSRVPPSLSSSSWTGFAPLAAYLFSWQEYLISEIKQGKKPSDQDSSDAISLSCSPVSNFSAYVSPEAAAQSAATTTWGSGVTAVAFDPTRGGSVIAVVIVEGQYMSPYDPDEGPSITGWRVQRWESSVQPVVLHQIFGNPTSNFGGQVPTQTVWVSRVDMSIPPTKDFKNHQVAAAGPSVDAPKEPDSGDEKANKVVFDPFDLPSDIRTLARIVYSAHGGEIAIAFLRGGVHIFSGPTFSPVENYQINVGSAIAAPAFSPTSCCSASVWHDAAKDCAMLKIIRVLPPALPRNQSKVDQSTWERAIAERFWWSLLVGVDWWDAVGCTQSAAEDGIVSLNSVIAVMDADFHSLPSTQHRQQYGPNLDRIKCRLLEGTNAQEVRAMVLDMQARLLLDMLGKGIESALVNPSALVFEPWRVDGETITGINPEAMAVDPALVSSIQAYVDAVLDLASHFITRLRRYASFCRTLASHAASAGTGSNRNNVTSPTQNASSPATPQVFPDKSLYLAVGQPTTTTTTTATTNSSGSSHVQAWMQGAIAKISSSNDGSNSTASPISGSPTFMPISINTGTFPGTPAVRLIGDCHFLHRLCQLLLFCFLQRSSRFPQRNADVSSQKLQTGATSKLEEVNSAKPTPALNRIEDAQGFRGAQLGTGVKGIDENSARTTKMGSGNAGQGYTYEEVRVLFHILMDLCKRTSGLAHPLPGSQVGSGNIQVRLHYIDGNYTVLPEVVEAALGPHMQNMPRPRGADAAGLLLRELELHPPSEEWHRRNLFGGPGSEPEDMILTDDVSKLSNSLDLPDTNFSGICDGYNRVHSLWPRKRRMSERDAAFGSNTSVGLGAYLGIMGSRRDVVTATWKTGLEGVWYKCIRCLRQTSAFASPGATKQPNPNERETWWTSRWVYCCPMCGGTWVRVV | binds

Results are given in words; binding and its absence hold for the method and conditions named. In cells and extracts the contact can be indirect. Here binding means that the protein was enriched with, or labelled near, the bait; the list need not be complete.
